Experimental data published in PMC9527583.
No constants are given. Whether binding was seen depends on the method and setting. Binding seen in cells or lysates may run through a third protein. Some entries that bind do so weakly or less than the wild type.

Target: T1, TRAF4-Omni (tumor necrosis factor receptor-associated factor 4, whole length) (human) (UniProt Q9BUZ4)
T1 sequence: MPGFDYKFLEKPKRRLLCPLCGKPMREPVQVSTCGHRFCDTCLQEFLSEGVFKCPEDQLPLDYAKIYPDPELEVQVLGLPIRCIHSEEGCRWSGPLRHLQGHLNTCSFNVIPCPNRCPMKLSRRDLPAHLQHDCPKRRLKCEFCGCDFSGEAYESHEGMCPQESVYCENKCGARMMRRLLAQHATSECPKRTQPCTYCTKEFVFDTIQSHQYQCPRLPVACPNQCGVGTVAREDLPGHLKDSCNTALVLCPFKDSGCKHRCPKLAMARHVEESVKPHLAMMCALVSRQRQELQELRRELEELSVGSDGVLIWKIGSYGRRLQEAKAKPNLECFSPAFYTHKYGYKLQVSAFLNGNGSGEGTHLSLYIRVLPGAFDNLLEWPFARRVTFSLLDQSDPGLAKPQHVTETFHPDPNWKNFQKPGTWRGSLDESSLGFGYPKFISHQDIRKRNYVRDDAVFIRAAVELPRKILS
Test: co-IP; HEK-293T cells cotransfected with pcDNA-TRAF4-Omni and pcDNA-MEKK3-M2, pcDNA-MEKK2-M2 or control plasmid; lysates immunoprecipitated with anti-Omni antibody, western blot; binding buffer 25 mM Tris-HCl pH 8.0, 150 mM NaCl, 1 mM EDTA, 0.5% Nonidet P-40

B1: MEKK3-M2 (mitogen-activated protein kinase kinase kinase 3) (protein, UniProt Q99759 1-626)
chain: MDEQEALNSIMNDLVALQMNRRHRMPGYETMKNKDTGHSNRQSDVRIKFEHNGERRIIAFSRPVKYEDVEHKVTTVFGQPLDLHYMNNELSILLKNQDDLDKAIDILDRSSSMKSLRILLLSQDRNHNSSSPHSGVSRQVRIKASQSAGDINTIYQPPEPRSRHLSVSSQNPGRSSPPPGYVPERQQHIARQGSYTSINSEGEFIPETSEQCMLDPLSSAENSLSGSCQSLDRSADSPSFRKSRMSRAQSFPDNRQEYSDRETQLYDKGVKGGTYPRRYHVSVHHKDYSDGRRTFPRIRRHQGNLFTLVPSSRSLSTNGENMGLAVQYLDPRGRLRSADSENALSVQERNVPTKSPSAPINWRRGKLLGQGAFGRVYLCYDVDTGRELASKQVQFDPDSPETSKEVSALECEIQLLKNLQHERIVQYYGCLRDRAEKTLTIFMEYMPGGSVKDQLKAYGALTESVTRKYTRQILEGMSYLHSNMIVHRDIKGANILRDSAGNVKLGDFGASKRLQTICMSGTGMRSVTGTPYWMSPEVISGEGYGRKADVWSLGCTVVEMLTEKPPWAEYEAMAAIFKIATQPTNPQLPSHISEHGRDFLRRIFVEARQRPSAEELLTHHFAQLMY
binding: binds

B2: MEKK2-M2 (protein, UniProt Q9Y2U5 1-619)
chain: MDDQQALNSIMQDLAVLHKASRPALSLQETRKAKSSSPKKQNDVRVKFEHRGEKRILQFPRPVKLEDLRSKAKIAFGQSMDLHYTNNELVIPLTTQDDLDKAVELLDRSIHMKSLKILLVINGSTQATNLEPLPSLEDLDNTVFGAERKKRLSIIGPTSRDRSSPPPGYIPDELHQVARNGSFTSINSEGEFIPESMDQMLDPLSLSSPENSGSGSCPSLDSPLDGESYPKSRMPRAQSYPDNHQEFSDYDNPIFEKFGKGGTYPRRYHVSYHHQEYNDGRKTFPRARRTQGTSLRSPVSFSPTDHSLSTSSGSSIFTPEYDDSRIRRRGSDIDNPTLTVMDISPPSRSPRAPTNWRLGKLLGQGAFGRVYLCYDVDTGRELAVKQVQFDPDSPETSKEVNALECEIQLLKNLLHERIVQYYGCLRDPQEKTLSIFMEYMPGGSIKDQLKAYGALTENVTRKYTRQILEGVHYLHSNMIVHRDIKGANILRDSTGNVKLGDFGASKRLQTICLSGTGMKSVTGTPYWMSPEVISGEGYGRKADIWSVACTVVEMLTEKPPWAEFEAMAAIFKIATQPTNPKLPPHVSDYTRDFLKRIFVEAKLRPSADELLRHMFVHYH
binding: no binding
